This is an account of results in publication PMC9610083.

In this experiment the target is cyclin B1 (human (endogenous in HFF)), P14635. As to the kind of experiment: co-IP. The conditions noted are these: remark: other sources report otherwise.

Results are given in words; binding and its absence hold for the method and conditions named. Binding seen in cells or lysates may run through a third protein. Some binding calls cover weakened binding; strength is not graded here.

B1: HCMV protein kinase pUL97, wild type (parental strain Ad169/BADwt), P16788 1-707 (enzyme)
chain: MSSALRSRARSASLGTTTQGWDPPPLRRPSRARRRQWMREAAQAAAQAAVQAAQAAAAQVAQAHVDENEVVDLMADEAGGGVTTLTTLSSVSTTTVLGHATFSACVRSDVMRDGEKEDAASDKENLRRPVVPSTSSRGSAASGDGYHGLRCRETSAMWSFEYDRDGDVTSVRRALFTGGSDPSDSVSGVRGGRKRPLRPPLVSLARTPLCRRRVGGVDAVLEENDVELRAESQDSAVASGPGRIPQPLSGSSGEESATAVEADSTSHDDVHCTCSNDQIITTSIRGLTCDPRMFLRLTHPELCELSISYLLVYVPKEDDFCHKICYAVDMSDESYRLGQGSFGEVWPLDRYRVVKVARKHSETVLTVWMSGLIRTRAAGEQQQPPSLVGTGVHRGLLTATGCCLLHNVTVHRRFHTDMFHHDQWKLACIDSYRRAFCTLADAIKFLNHQCRVCHFDITPMNVLIDVNPHNPSEIVRAALCDYSLSEPYPDYNERCVAVFQETGTARRIPNCSHRLRECYHPAFRPMPLQKLLICDPHARFPVAGLRRYCMSELSALGNVLGFCLMRLLDRRGLDEVRMGTEALLFKHAGAACRALENGKLTHCSDACLLILAAQMSYGACLLGEHGAALVSHTLRFVEAKMSSCRVRAFRRFYHECSQTMLHEYVRKNVERLLATSDGLYLYNAFRRTTSIICEEDLDGDCRQLFPE
In the case of B1, the binding entry is reported as “binds”.
